We go through four sequences from paper PMC10920880.

Construct, isoform or probe ends are uncertain for at least one entry. For some of these results: Weaker means in comparison with the reference protein, sequence or condition of that experiment. For some of these results: Whether high values mean tight binding is not given here for every scale.

The target of data set [1] is Hfq:Y25D (distal face mutant) (Escherichia coli K12) (UniProt P0A6X3). Kind of data set: competition (TTG ASO accessibility). As to conditions: 5 nM Y25D, no protection of the AAC motif, free mRNA 69 ± 3%; internal Cy5 after nt 35; EMSA: 1x TNK, 5% glycerol, 15 min RT, native 8% PAGE 1x TBE 4 C; recombinant protein.
The target is the same in data set [2]. Kind of data set: smFRET. The conditions noted are these: sRNA (N13)-Hfq, smFRET: 10 mM Tris-HCl pH 7.5, 50 mM NaCl, 50 mM KCl, 4 mM Trolox, 0.01% Nikkol, 0.8% glucose, RNasin, oxygen scavenger, recombinant protein, label: tether 5' biotin, 3' Cy5.

Take “GGACUCUAUCGAGUCCAACAACAACAACAACAACCCCUGCAUCACCUAAACUUUACUCUACCAUCACCAGACCUCGCGCCCAGGACGACACACUUUGGACAGGACACACAGGACACAGG / CCTGTGTCCTGTGTGTCCTGTCCAAAGTGTGTCGTCC [(AAC)6-Cy5-N35-S6 mRNA on DNA tether]”: the binding signal (% mRNA accessible to TTG ASO) in data set [1] amounted to 67. As to “GGACUCUAUCGAGUCCAACAACAACAACGACCUCGCGCCCAGGACGACACACUUUGGACAGGACACACAGGACACAGG / CCTGTGTCCTGTGTGTCCTGTCCAAAGTGTGTCGTCC [(AAC)4-N0-S6 mRNA on DNA tether]”, in data set [2] (annealing at no-Hfq level), the binding result is “binds more weakly”. With “GGACUCUAUCGAGUCCAACAACAACAACUCUACCAUCACCUAAACUUUACUCUACCAUCACCAGACCUCGCGCCCAGGACGACACACUUUGGACAGGACACACAGGACACAGG / CCTGTGTCCTGTGTGTCCTGTCCAAAGTGTGTCGTCC [(AAC)4-N35-S6 mRNA on DNA tether]”, the binding result in data set [2] was “binds more weakly”.

Regarding “GGACUCUAUCGAGUCCAACAACAACAACUCUACCAUCACCUAAGACCUCGCGCCCAGGACGACACACUUUGGACAGGACACACAGGACACAGG / CCTGTGTCCTGTGTGTCCTGTCCAAAGTGTGTCGTCC [(AAC)4-N15-S6 mRNA on DNA tether]”, in data set [2], the binding result is given as “binds more weakly”.
